Data taken from patent US20090298708.

Amino acid sequences for entries named in this document (tags omitted).
UniProt P19821, whole entry: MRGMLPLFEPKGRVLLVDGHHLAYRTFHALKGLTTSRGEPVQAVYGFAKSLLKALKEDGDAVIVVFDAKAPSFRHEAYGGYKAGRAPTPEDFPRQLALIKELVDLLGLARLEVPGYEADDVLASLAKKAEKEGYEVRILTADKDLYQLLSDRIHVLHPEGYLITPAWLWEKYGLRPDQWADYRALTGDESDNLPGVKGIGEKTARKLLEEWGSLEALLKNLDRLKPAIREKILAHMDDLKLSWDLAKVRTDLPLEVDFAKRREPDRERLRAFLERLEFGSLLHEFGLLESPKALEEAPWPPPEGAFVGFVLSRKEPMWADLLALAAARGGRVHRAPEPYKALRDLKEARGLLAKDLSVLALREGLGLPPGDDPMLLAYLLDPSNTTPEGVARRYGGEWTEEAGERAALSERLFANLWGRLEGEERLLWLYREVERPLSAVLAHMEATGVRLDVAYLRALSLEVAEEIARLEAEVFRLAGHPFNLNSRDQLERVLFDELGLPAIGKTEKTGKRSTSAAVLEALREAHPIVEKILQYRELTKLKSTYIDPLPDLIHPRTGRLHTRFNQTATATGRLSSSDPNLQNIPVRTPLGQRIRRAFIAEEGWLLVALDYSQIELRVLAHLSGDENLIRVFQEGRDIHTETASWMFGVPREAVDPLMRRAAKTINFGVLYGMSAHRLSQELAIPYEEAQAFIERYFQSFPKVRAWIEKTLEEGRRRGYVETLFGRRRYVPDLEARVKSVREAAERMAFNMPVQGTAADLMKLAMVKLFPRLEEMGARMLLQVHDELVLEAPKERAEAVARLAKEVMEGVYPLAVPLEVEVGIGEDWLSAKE

Legend:
Assay in all cases: activity assay
[1] = target: T1, Deep Vent (3'->5' exo-) DNA polymerase (DV) (UniProt Q51334); conditions: 55 C, purified recombinant protein, protein details: New England Biolabs, label: 5'-32P primer
T1 sequence (looked up, limits assumed): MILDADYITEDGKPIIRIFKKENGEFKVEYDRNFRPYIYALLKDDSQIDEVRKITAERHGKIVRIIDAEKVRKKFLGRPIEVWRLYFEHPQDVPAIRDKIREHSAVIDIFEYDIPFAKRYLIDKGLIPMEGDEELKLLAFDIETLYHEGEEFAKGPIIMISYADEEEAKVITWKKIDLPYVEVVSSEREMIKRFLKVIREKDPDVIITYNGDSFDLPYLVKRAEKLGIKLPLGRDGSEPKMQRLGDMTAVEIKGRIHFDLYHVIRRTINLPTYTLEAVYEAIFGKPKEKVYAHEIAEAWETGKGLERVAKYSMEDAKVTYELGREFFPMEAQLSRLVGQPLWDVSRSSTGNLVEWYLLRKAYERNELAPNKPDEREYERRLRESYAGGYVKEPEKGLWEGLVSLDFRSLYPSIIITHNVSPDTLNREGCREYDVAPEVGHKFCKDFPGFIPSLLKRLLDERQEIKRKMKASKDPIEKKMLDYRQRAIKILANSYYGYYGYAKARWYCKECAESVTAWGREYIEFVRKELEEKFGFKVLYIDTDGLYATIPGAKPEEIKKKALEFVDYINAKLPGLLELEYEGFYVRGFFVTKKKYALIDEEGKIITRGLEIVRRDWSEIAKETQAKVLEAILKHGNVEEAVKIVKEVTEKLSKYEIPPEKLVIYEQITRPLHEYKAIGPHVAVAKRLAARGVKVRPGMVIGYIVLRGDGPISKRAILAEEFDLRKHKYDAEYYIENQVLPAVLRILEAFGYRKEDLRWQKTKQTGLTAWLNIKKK

[2] = target: T2, Bst DNA polymerase large fragment (UniProt P52026); conditions: 2'F-ara (FANA) at 100% of test segment (TTACCTTT) of template; primer extension with dNTPs; full-length product; 55 C; purified recombinant protein; protein details: New England Biolabs; label: 5'-32P primer; synthetic backbone
T2 sequence (looked up, limits assumed): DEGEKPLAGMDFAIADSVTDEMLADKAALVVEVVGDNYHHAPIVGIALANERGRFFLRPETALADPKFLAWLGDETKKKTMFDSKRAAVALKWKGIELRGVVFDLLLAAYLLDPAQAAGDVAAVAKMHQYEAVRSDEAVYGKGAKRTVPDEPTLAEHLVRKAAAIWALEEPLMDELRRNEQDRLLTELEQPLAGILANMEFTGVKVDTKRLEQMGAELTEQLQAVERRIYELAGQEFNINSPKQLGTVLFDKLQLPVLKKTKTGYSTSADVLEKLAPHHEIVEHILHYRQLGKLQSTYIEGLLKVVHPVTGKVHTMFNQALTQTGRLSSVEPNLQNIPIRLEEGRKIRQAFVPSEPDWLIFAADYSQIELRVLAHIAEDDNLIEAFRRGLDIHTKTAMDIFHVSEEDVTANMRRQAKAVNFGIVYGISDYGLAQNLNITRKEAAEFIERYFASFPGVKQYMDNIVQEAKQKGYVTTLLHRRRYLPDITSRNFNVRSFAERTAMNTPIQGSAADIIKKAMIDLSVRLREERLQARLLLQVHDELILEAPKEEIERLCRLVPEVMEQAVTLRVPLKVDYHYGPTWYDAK

[3] = test system: Phusion High-Fidelity DNA polymerase (Ph); conditions: 2'F-ara (FANA) at 100% of test segment (TTACCTTT) of template; primer extension with dNTPs; two dNTPs maximally; 55 C; purified recombinant protein; protein details: Finnzymes, distributed by New England Biolabs; label: 5'-32P primer; synthetic backbone
Taq DNA polymerase = Taq DNA polymerase (UniProt P19821); conditions: 2'F-ara (FANA) at 100% of test segment (TTACCTTT) of template; primer extension with dNTPs; 55 C; purified recombinant protein; protein details: New England Biolabs; label: 5'-32P primer; synthetic backbone
9°Nm DNA polymerase (9N) = target: T3, 9°Nm DNA polymerase (9N) (UniProt Q56366); conditions: apparent fidelity, 2'F-araCTP dropout; dCTP dropout 82%; 55 C; purified recombinant protein; protein details: New England Biolabs; label: 5'-32P primer
T3 sequence (looked up, limits assumed): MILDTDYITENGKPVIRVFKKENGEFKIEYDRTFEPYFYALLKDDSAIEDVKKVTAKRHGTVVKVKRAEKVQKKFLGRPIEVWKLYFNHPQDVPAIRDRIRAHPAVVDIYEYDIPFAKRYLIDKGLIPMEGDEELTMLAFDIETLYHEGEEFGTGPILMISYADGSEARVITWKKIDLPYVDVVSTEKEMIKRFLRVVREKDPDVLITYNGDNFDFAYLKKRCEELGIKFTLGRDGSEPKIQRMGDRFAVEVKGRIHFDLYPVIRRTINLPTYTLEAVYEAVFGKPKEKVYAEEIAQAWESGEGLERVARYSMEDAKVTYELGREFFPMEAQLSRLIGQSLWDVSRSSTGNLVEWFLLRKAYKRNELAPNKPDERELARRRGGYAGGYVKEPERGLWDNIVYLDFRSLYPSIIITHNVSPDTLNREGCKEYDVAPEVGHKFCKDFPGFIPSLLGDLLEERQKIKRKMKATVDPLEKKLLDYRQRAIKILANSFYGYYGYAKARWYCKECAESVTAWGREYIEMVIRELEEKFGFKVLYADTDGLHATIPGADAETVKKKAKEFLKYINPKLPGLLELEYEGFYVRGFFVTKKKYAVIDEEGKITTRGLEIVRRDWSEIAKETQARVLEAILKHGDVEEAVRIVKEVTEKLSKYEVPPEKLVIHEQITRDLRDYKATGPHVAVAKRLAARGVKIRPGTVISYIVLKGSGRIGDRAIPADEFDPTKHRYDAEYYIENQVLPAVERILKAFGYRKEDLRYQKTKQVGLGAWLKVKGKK

TAATACGACTCACTATA / AAATCCCGAGAAGAGAGTATAGTGAGTCGTATTA [PF20/PF43 primer-template]
activity on this sequence ([1]; apparent fidelity, 2'F-araGTP dropout, dGTP dropout 62%): > 99%

TAATACGACTCACTATA / AGAGCCTGAGAAGAGAGTATAGTGAGTCGTATTA [PF20/PF41 primer-template]
activity on this sequence ([1]; apparent fidelity, 2'F-araATP dropout, dATP dropout 1%): > 99%

TAATACGACTCACTATA / TTACCTTTCTCTTCTCCCTATAGTGAGTCGTATTA [PF20/PF31 primer-FANA template]
activity on this sequence [2]: active
activity on this sequence [3]: less active
activity on this sequence ([1]; 2'F-ara (FANA) at 100% of test segment (TTACCTTT) of template, primer extension with dNTPs, up to 6 of 8 dNTPs, synthetic backbone): less active
activity on this sequence (Taq DNA polymerase): less active

TAATACGACTCACTATA / TTTACCGCTCTTCTCCCTATAGTGAGTCCTATTA [PF20/PF23 primer-template]
activity on this sequence (9°Nm DNA polymerase (9N)): 43%
activity on this sequence ([1]; apparent fidelity, 2'F-araCTP dropout, dCTP dropout 3%): 50%

TAATACGACTCACTATA / TTTGCCACTCTTCTCCCTATAGTGAGTCGTATTA [PF20/PF21 primer-template]
activity on this sequence ([1]; apparent fidelity, 2'F-araTTP dropout, dTTP dropout 19%): 3%

For part of these data: Weaker means in comparison with the reference protein, sequence or condition of that experiment. For part of these data: Protein sequences can lack the tags named with them. For part of these data: For at least one entry, the source does not settle the construct or the ends of the probe.
